Data on one compound can be found in patent publication US4551479A, “Compounds with anti-convulsive properties” (Akzo N.V., priority 1983, dated 1985).

A short description of series [1]: Rotarod (neurotoxicity and sedation). The following applies: ip.
The nature of series [2]: Shuttle box (neurotoxicity and sedation). Conditions: ip.

As for `CN1C(=O)CN=C(c2ccccc2)c2cc(Cl)ccc21` [diazepam], the TD50 came out at 1.3 mg/kg in series [1] and 8 mg/kg in series [2].
